{
  "source": "PubChem BioAssay AID2685",
  "about": "(National Center for Advancing Translational Sciences (NCATS), 2010)",
  "note": "Screen size: about 320,000 compounds; about 2,100 (0.66%) were called active. The shares of active, inactive and inconclusive entries below differ from those in the screen. The call rests on the fitted dose curve; in most records, active means well fitted inhibition curve with a large enough effect in the signal ratio, with a control signal flat (not every such curve was filed as active); inconclusive means small, poorly fitted or top-dose-only effect, or effect the other way, or a change in a side signal; inactive means flat fitted curve, though single readings scatter; the % refers to the signal ratio. Potencies of inconclusive entries are doubtful fits and often do not repeat. On the % scale 0 is the no-effect control and ±100 the full control effect; potency means the concentration at half of the fitted maximal effect.",
  "data": [
    {"test": "qHTS Assay for Lipid Storage Modulators in Drosophila S3 Cells", "settings": "BODIPY lipid droplet fluorescence, 18-24 h, cells fed with added oleic acid; lipid storage change, negative = inhibition: at 46.1 µM (top of the series) unless noted", "how_it_was_run": "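Laser-scanning cytometry quantifies lipid droplet accumulation (500–530 nm total intensity; droplet/cell object ratio) in oleic acid-fed (400 uM added) Drosophila S3 cells treated with a concentration series. 20 uM Triacsin C defined 100% inhibition.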", "values": [
      {"smiles": "CC(=O)c1cccc(N(CC(=O)N2CCOCC2)S(C)(=O)=O)c1", "Potency": "inconclusive: 3.26 µM [falling, full curve, poor fit]"},
      {"smiles": "O=C(COC(=O)C1=COCCO1)Nc1ncc(C(F)(F)F)cc1Cl", "Potency": "inconclusive: 0.517 µM [falling, full curve]"},
      {"smiles": "Cc1ccc(S(=O)(=O)N2CCCCC2)cc1NC(=O)CSCC(=O)O", "lipid storage change, negative = inhibition": "inconclusive: -36.7%"},
      {"smiles": "OC(Cc1ccncc1)(c1ccccc1)c1ccccc1", "Potency": "inconclusive: 23.1 µM [falling, single point]"},
      {"smiles": "O=[N+]([O-])c1ccc(O)c(C2=NNC(c3ccccc3F)C2)c1", "note": "(stereo not drawn)", "lipid storage change, negative = inhibition": "inconclusive: -38%"},
      {"smiles": "Cc1cccc(NC(=O)Cn2nc(-c3ccco3)ccc2=O)c1C", "Potency": "inconclusive: 6.51 µM [falling, single point]"},
      {"smiles": "CCN(CC)c1ccc(C(=O)OCC(=O)N(C)Cc2ccccc2)cc1", "lipid storage change, negative = inhibition": "inconclusive: 8.03%"},
      {"smiles": "CC1CN(C(=O)c2cccc(S(=O)(=O)N3CCOCC3)c2)CC(C)O1", "note": "(stereo not drawn)", "lipid storage change, negative = inhibition": "inconclusive: -31.7%"},
      {"smiles": "CCn1c2ccccc2c2nnc(SCCN3CCOCC3)nc21", "lipid storage change, negative = inhibition": "inconclusive: -49.8%"},
      {"smiles": "CCCC(CCC)C(=O)Nc1c[nH]c(=O)[nH]c1=O", "lipid storage change, negative = inhibition": "inconclusive: 6.59%"},
      {"smiles": "Cc1nc2ccccc2n1CCC(=O)O", "lipid storage change, negative = inhibition": "inconclusive: -3.01%"},
      {"smiles": "Cc1ccc(-n2nnnc2SCc2nnc(-c3ccccc3Br)o2)c(C)c1", "Potency": "inconclusive: 16.4 µM [rising, single point]"},
      {"smiles": "O=C(NN1C(=O)c2ccc(-c3ccc4c(c3)C(=O)N(NC(=O)c3cccnc3)C4=O)cc2C1=O)c1cccnc1", "lipid storage change, negative = inhibition": "inconclusive: -11.7%"},
      {"smiles": "CCCc1cc(C(=O)N2CCCC(Cc3ccccc3C)(C(=O)OCC)C2)no1", "note": "(stereo not drawn)", "Potency": "inconclusive: 16.4 µM [activator, single point]"},
      {"smiles": "CCc1ccc(CN(Cc2cccnc2)C(=O)/C=C/c2ccc(OC)cc2)cc1", "Potency": "inconclusive: 29.1 µM [falling, single point]"},
      {"smiles": "COc1ccc(/C=C/C(=O)CC(O)(c2ccccc2)C(F)(F)F)cc1", "note": "(stereo not drawn)", "Potency": "inconclusive: 20.6 µM [falling, single point]"},
      {"smiles": "Cc1cccc(CSCCNC(=O)Nc2ccccc2)c1", "lipid storage change, negative = inhibition": "inconclusive: 13.2%"},
      {"smiles": "CN(C)c1ccc(/C=N/NC(=O)C2CC2c2ccccc2)cc1", "note": "(stereo not drawn)", "lipid storage change, negative = inhibition": "inconclusive: -24.4%"},
      {"smiles": "COc1ccc(OC)c(NC(=O)CSc2nnc3ccc(-c4ccncc4)nn23)c1", "lipid storage change, negative = inhibition": "inconclusive: 36%"},
      {"smiles": "CCC(C(=O)OCC(=O)NC(=O)c1ccccc1)c1ccccc1", "note": "(stereo not drawn)", "lipid storage change, negative = inhibition": "inconclusive: 10.9%"},
      {"smiles": "COc1ccc(C2CCCN2C(=O)c2cccs2)cc1", "note": "(stereo not drawn)", "lipid storage change, negative = inhibition": "inconclusive: 11.9%"},
      {"smiles": "COc1ccc(OC)c(C2SCCN2S(=O)(=O)c2cccc(C(F)(F)F)c2)c1", "note": "(stereo not drawn)", "lipid storage change, negative = inhibition": "inconclusive: -23.1%"},
      {"smiles": "CN(c1ccc(C(=O)NC2CCCC2)cc1)S(=O)(=O)c1ccc(Cl)cc1", "Potency": "inconclusive: 18.4 µM [falling, single point]"},
      {"smiles": "CCc1ccccc1NC(=O)CCc1c(C)nc(SC)nc1C", "Potency": "inconclusive: 0.116 µM [falling, full curve, poor fit]"},
      {"smiles": "O=C(c1cc2ccccc2oc1=O)N1CCN(Cc2ccc3c(c2)OCO3)CC1", "Potency": "inconclusive: 0.82 µM [activator, single point]"},
      {"smiles": "CC(C)c1nc2sc3c(=O)[nH]cnc3c2c2c1CCCC2", "Potency": "inconclusive: 0.146 µM [falling, full curve, poor fit]"},
      {"smiles": "O=C(NCc1ccco1)/C(=C/c1ccc(F)cc1)NC(=O)c1ccccc1", "lipid storage change, negative = inhibition": "inconclusive: -26.9%"},
      {"smiles": "Cc1csc2nc(CSc3nncn3-c3ccccc3)c(Br)n12", "Potency": "inconclusive: 8.2 µM [activator, partial curve]"},
      {"smiles": "CCc1nnc(NC(=O)CCS(=O)(=O)c2ccccc2)s1", "lipid storage change, negative = inhibition": "inconclusive: 83.2%"},
      {"smiles": "O=C(NCC(=O)N1CCN(S(=O)(=O)c2cccs2)CC1)c1ccc(Cl)cc1", "lipid storage change, negative = inhibition": "inconclusive: 0.134% [at 9.22 µM]"},
      {"smiles": "COc1ccc(C(C)(C)C)cc1S(=O)(=O)N1CCN(C)CC1", "Potency": "inconclusive: 7.31 µM [activator, single point]"},
      {"smiles": "CCOC(=O)CSc1cc(CS(=O)(=O)c2ccccc2)nc(-c2ccccc2)n1", "lipid storage change, negative = inhibition": "inconclusive: 1.51%"},
      {"smiles": "CCc1ccccc1N(C(=O)c1ccco1)C(C(=O)NC1CCCC1)c1cccnc1", "note": "(stereo not drawn)", "Potency": "inconclusive: 29.1 µM [falling, single point]"},
      {"smiles": "O=C(CCN1CCN(C(=O)c2ccccc2)CC1)c1ccc(Br)cc1", "lipid storage change, negative = inhibition": "inactive"},
      {"smiles": "O=C(c1cc2ccccc2o1)N1CCN(c2ccccc2Cl)CC1", "lipid storage change, negative = inhibition": "inconclusive: 10.8%"},
      {"smiles": "O=C(NNC(=O)c1cccc(S(=O)(=O)N2CCc3ccccc32)c1)c1ccccc1", "lipid storage change, negative = inhibition": "inconclusive: 11.5%"},
      {"smiles": "Cc1ccsc1CN(C)C(=O)C(NC(=O)c1cccc(S(=O)(=O)N2CCOCC2)c1)C(C)C", "note": "(stereo not drawn)", "Potency": "inconclusive: 0.58 µM [falling, full curve]"},
      {"smiles": "Cc1nnc(SCc2cc([N+](=O)[O-])cc3c2OCOC3)n(N)c1=O", "lipid storage change, negative = inhibition": "inconclusive: 5.74%"},
      {"smiles": "COc1ccccc1NC(=O)c1c(C)cc(=O)oc1C", "Potency": "inconclusive: 1.3 µM [activator, full curve]"},
      {"smiles": "CCOc1ccc(-c2c(C#N)c(N)nc3sc(C(=O)c4ccccc4)c(N)c23)cc1", "Potency": "inconclusive: 0.0291 µM [activator, full curve, poor fit]"},
      {"smiles": "CN1CCSc2ccc(C(=O)NCc3cccc(Br)c3)cc21", "lipid storage change, negative = inhibition": "inconclusive: -13.1%"},
      {"smiles": "COc1cccc(/C=C2\\CCCCC2=O)c1", "Potency": "inconclusive: 11.6 µM [activator, partial curve]"},
      {"smiles": "O=C1CSC(c2ccccc2)N1c1ccc(F)cc1F", "note": "(stereo not drawn)", "lipid storage change, negative = inhibition": "inconclusive: 14%"},
      {"smiles": "Cc1ccc(C(=O)NCC(=O)OCn2nnc3ccccc3c2=O)cc1", "lipid storage change, negative = inhibition": "inconclusive: -87.5%"},
      {"smiles": "CC1CCN(C(=O)COC(=O)c2c[nH]c3ccccc23)CC1", "lipid storage change, negative = inhibition": "inconclusive: -25.9%"},
      {"smiles": "CNC(=O)C1CCN(S(=O)(=O)c2c(C)noc2/C=C/c2ccc(C)cc2)CC1", "lipid storage change, negative = inhibition": "inconclusive: 41.2%"},
      {"smiles": "Oc1cccc(-n2nnnc2SCc2ccccc2F)c1", "lipid storage change, negative = inhibition": "inconclusive: -10.8%"},
      {"smiles": "Nc1nnc(SCC(=O)Nc2sc3c(c2C(=O)c2ccccc2)CCCC3)s1", "Potency": "inconclusive: 29.1 µM [falling, single point]"}
    ]}
  ]
}
